Source: paper PMC8529501 (iScience, 2021)
No constants are given. Whether binding was seen depends on the method and setting. Binding seen in cells or lysates may run through a third protein. Some entries that bind do so weakly or less than the wild type.

Experiments:
HA-FKBP12 = HA-FKBP12 (UniProt P62942); assay: co-IP; tagged proteins cotransfected in HEK293T; lysis in 20 mM Tris-HCl pH 7.4, 150 mM NaCl, 0.5% NP-40, 10% glycerol, 1 mM DTT; tag IP, washed with PBS, Western blot; cells untreated or treated with rapamycin, amino acids or serum, NAM or TSA as in the legends
FLAG-FKBP12 = FLAG-FKBP12 (UniProt P62942); assay: as above
FKBP12-C-Luc = FKBP12-C-Luc (UniProt P62942); assay: split reporter; split luciferase: FKBP12 fused to C-Luc, FRB or Rheb fused to N-Luc, cotransfected in HEK293T; rapamycin treatment for 6 h; with or without TSA or NAM pretreatment for 2 h; luciferase activity

binding (HA-FKBP12)	binding (FLAG-FKBP12)	binding (FKBP12-C-Luc)	Substance
binds	–	–	Flag-Rheb (from UniProt Q15382 1-184)
binds	–	–	Flag-Rheb-K8Q (from UniProt Q15382 1-184)
binds	–	–	Flag-Rheb-K8R (from UniProt Q15382 1-184)
binds	binds	–	Myc-Rheb (from UniProt Q15382 1-184)
–	–	binds	Rheb-N-Luc (from UniProt Q15382 1-184)
